In article PMC10826121 one finds binding data, which are given here for one molecule.

The chains behind the UniProt entries cited, without tags or fusion partners.
UniProt P49327: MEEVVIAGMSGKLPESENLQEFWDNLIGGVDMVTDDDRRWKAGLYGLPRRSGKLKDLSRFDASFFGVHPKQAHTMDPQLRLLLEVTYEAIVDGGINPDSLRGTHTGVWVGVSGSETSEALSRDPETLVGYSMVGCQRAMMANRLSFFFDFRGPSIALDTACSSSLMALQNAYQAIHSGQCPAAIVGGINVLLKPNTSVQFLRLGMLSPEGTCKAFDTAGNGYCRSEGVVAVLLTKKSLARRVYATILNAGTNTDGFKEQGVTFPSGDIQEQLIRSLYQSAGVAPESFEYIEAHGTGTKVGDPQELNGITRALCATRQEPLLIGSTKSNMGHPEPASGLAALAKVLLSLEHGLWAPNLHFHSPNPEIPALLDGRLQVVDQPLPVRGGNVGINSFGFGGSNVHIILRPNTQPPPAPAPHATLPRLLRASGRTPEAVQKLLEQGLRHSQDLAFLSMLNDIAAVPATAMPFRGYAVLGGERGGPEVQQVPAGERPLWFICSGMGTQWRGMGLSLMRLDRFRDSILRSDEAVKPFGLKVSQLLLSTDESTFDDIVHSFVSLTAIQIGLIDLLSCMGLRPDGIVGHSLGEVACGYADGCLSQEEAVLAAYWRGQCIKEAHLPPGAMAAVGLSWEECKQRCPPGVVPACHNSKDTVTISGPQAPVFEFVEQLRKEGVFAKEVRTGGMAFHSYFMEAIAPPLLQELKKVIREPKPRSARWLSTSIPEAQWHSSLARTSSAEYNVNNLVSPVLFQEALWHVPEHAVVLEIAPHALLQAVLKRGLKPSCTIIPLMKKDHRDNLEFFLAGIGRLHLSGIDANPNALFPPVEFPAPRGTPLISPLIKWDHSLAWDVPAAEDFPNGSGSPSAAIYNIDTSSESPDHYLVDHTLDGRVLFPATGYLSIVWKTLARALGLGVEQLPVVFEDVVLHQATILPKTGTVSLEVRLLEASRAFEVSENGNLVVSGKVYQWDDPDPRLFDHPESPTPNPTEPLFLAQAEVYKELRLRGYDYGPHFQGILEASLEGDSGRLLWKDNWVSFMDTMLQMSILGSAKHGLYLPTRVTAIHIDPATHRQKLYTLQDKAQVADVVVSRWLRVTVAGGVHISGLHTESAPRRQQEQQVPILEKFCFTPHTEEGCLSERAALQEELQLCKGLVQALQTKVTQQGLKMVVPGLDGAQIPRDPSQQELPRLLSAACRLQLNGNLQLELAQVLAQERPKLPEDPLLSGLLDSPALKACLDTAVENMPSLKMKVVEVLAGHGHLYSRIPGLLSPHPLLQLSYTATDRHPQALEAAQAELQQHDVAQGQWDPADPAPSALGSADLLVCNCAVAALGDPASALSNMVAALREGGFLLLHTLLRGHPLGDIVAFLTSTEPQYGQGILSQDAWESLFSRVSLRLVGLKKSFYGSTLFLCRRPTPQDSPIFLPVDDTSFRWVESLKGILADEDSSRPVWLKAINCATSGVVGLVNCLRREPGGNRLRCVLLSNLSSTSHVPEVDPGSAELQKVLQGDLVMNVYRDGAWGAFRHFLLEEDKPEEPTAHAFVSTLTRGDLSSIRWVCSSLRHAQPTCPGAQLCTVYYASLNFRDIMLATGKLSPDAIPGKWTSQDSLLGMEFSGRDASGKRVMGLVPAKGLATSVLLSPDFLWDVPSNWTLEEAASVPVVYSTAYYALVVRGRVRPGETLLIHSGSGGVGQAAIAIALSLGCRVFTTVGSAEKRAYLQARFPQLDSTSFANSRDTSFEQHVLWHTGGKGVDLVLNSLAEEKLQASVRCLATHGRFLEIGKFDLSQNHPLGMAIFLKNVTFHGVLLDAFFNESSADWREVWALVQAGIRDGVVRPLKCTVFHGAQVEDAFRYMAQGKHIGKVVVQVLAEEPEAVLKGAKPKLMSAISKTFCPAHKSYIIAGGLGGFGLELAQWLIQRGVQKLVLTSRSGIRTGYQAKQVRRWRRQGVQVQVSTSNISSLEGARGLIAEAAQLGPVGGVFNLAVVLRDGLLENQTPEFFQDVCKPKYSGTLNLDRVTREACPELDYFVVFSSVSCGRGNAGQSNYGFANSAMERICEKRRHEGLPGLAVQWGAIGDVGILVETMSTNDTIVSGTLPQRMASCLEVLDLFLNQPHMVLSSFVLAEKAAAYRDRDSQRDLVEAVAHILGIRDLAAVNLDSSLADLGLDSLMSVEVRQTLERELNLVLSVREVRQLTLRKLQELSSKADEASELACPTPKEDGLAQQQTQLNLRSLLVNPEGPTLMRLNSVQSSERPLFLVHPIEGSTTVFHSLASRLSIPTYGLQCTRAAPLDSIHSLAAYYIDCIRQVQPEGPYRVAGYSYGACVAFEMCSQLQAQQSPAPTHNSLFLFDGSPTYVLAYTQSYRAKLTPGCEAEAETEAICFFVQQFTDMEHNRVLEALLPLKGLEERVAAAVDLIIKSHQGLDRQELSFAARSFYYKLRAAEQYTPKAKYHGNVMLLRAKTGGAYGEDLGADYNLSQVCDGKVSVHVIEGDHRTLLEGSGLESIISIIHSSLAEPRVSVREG

These are yes or no findings as the source states them, for the method shown. In cells and extracts the contact can be indirect. Some entries that bind do so weakly or less than the wild type.

This test deals with Fatty acid synthase (human (endogenous in HT29 and SW480)) (UniProt P49327). The test can be described thus: co-IP; lysate of HT29 or SW480 cells, 1-1.5 mg total protein; IP overnight at 4 C with 4 ug anti-FASN antibody, Protein G magnetic beads; western blotting.

B1: phosphatidylinositol transfer protein cytoplasmic 1 (protein, UniProt Q9UKF7 1-332)
chain: MLLKEYRICMPLTVDEYKIGQLYMISKHSHEQSDRGEGVEVVQNEPFEDPHHGNGQFTEKRVYLNSKLPSWARAVVPKIFYVTEKAWNYYPYTITEYTCSFLPKFSIHIETKYEDNKGSNDTIFDNEAKDVEREVCFIDIACDEIPERYYKESEDPKHFKSEKTGRGQLREGWRDSHQPIMCSYKLVTVKFEVWGLQTRVEQFVHKVVRDILLIGHRQAFAWVDEWYDMTMDEVREFERATQEATNKKIGIFPPAISISSIPLLPSSVRSAPSSAPSTPLSTDAPEFLSVPKDRPRKKSAPETLTLPDPEKKATLNLPGMHSSDKPCRPKSE
Regarding B1, the binding result was “binds”.
